Among the data in article PMC5986713 are binding values, retold here.

In this assay the target is T1, wild-type Smc2 fused to a Protein A tag (S. cerevisiae) (UniProt P38989).
T1 sequence: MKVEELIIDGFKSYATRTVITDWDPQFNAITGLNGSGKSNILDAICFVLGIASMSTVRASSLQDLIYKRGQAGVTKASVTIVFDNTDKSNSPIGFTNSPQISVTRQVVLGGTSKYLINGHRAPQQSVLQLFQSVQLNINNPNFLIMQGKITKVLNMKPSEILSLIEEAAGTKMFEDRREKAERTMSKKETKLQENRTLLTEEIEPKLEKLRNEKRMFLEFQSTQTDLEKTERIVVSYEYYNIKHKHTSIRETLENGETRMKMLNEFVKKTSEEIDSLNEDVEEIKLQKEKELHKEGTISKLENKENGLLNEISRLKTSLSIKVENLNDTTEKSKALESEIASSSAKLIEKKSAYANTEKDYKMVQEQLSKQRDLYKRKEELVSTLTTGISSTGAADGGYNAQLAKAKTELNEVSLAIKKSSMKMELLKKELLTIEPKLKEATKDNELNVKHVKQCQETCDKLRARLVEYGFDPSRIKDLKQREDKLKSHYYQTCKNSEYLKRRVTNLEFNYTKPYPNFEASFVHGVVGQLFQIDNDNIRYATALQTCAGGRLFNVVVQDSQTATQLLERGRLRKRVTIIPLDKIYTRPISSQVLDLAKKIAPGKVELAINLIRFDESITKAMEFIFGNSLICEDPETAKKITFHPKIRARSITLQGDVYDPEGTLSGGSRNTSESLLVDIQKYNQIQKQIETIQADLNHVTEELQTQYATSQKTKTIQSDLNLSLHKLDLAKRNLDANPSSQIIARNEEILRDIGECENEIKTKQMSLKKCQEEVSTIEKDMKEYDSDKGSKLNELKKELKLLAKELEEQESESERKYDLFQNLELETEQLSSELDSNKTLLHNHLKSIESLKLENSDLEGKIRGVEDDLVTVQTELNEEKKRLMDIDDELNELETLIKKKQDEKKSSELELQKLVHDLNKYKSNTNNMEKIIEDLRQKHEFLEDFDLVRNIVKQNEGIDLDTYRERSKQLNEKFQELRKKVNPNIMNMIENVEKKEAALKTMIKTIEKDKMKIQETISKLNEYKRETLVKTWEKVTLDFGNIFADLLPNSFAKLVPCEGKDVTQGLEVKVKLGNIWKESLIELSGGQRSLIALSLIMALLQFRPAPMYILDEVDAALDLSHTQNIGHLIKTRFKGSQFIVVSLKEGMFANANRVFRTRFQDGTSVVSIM
As to the kind of experiment: co-IP; Protein A-tagged wild-type or ATPase mutant Smc2 or Smc4 precipitated by the Protein A tag from budding yeast (temperature-sensitive smc2-8 or smc4-1 background); coprecipitated Brn1-18myc detected by western blotting. (A western blot detects proteins with antibodies after separation by electrophoresis.)

No constants are given. Whether binding was seen depends on the method and setting. Binding seen in cells or lysates may run through a third protein. Some binding calls cover weakened binding; strength is not graded here. Tags and fused reporters may be left off the sequences shown.

B1: Brn1-18myc (protein, UniProt P38170 1-754)
chain: MTTQLRYENNDDDERVEYNLFTNRSTMMANFEEWIKMATDNKINSRNSWNFALIDYFYDLDVLKDGENNINFQKASATLDGCIKIYSSRVDSVTTETGKLLSGLAQRKTNGASNGDDSNGGNGEGLGGDSDEANIEIDPLTGMPISNDPDVNNTRRRVYNRVLETTLVEFETIKMKELDQELIIDPLFKKALVDFDEGGAKSLLLNTLNIDNTARVIFDASIKDTQNVGQGKLQRKEEELIERDSLVDDENEPSQSLISTRNDSTVNDSVISAPSMEDEILSLGMDFIKFDQIAVCEISGSIEQLRNVVEDINQAKDFIENVNNRFDNFLTEEELQAAVPDNAEDDSDGFDMGMQQELCYPDENHDNTSHDEQDDDNVNSTTGSIFEKDLMAYFDENLNRNWRGREHWKVRNFKKANLVNKESDLLEETRTTIGDTTDKNTTDDKSMDTKKKHKQKKVLEIDFFKTDDSFEDKVFASKGRTKIDMPIKNRKNDTHYLLPDDFHFSTDRITRLFIKPGQKMSLFSHRKHTRGDVSSGLFEKSTVSANHSNNDIPTIADEHFWADNYERKEQEEKEKEQSKEVGDVVGGALDNPFEDDMDGVDFNQAFEGTDDNEEASVKLDLQDDEDHKFPIRENKVTYSRVSKKVDVRRLKKNVWRSINNLIQEHDSRKNREQSSNDSETHTEDESTKELKFSDIIQGISKMYSDDTLKDISTSFCFICLLHLANEHGLQITHTENYNDLIVNYEDLATTQAAS
B1: the binding result is on record as “binds”.
